Reference: US20190125735A1, “INHIBITION OF P38 MAPK FOR THE TREATMENT OF CANCER” (Board of Regents, The University of Texas System, priority 2015, published 2019)

The chains behind the UniProt entries cited, without tags or fusion partners. Where a name states a change or a piece, a line headed by the entry shows the natural chain unless it says otherwise.
UniProt P31749: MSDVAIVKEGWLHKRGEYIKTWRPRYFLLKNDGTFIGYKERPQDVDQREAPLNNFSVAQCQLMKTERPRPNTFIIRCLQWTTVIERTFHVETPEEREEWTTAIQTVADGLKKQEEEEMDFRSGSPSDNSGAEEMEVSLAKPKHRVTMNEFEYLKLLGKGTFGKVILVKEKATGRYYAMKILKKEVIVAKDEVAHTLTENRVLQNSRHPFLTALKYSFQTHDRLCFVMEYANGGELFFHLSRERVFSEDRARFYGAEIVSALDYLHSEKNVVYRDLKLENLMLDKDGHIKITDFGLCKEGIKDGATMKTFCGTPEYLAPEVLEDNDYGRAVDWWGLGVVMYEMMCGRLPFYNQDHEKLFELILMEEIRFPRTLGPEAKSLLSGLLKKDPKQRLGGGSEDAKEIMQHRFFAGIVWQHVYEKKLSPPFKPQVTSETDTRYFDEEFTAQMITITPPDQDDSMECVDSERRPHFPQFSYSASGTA

Legend:
[1] = test system: BCR-ABL+ mouse ALL cells seeded on MSCs; test: Post-screening leukemic cell cluster formation underneath pretreated MSCs; assay type: cell-based; settings: leukemic cells pre-treated with SB203580 (20 μM, 2 days), seeded onto imatinib-pretreated MSCs, vs control
From the text: Phase-contrast images of co-cultured MSCs and ALL cells were obtained using an Axio Observer.Z1 microscope, an AxioCam MR camera, and AxioVision software (Zeiss, Oberkochen, Germany). For screening, a cluster was defined as a group of more than five leukemic cells under the MSCs. The total number of leukemic cell clusters was the average number of clusters from three different fields (10× objective). For post-screening experiments, a cluster was defined as a group of more than 10 leukemic cells under the MSCs. The total number of leukemic cell clusters was the average number of clusters from 10 different fields (10× objective).

HMLE-Snail cells = test: Sphere formation in ultra-low attachment plates, HMLE-Snail cells; assay type: cell-based; settings: Homo sapiens, read-out: Concentration of the drug that induced 50% reduction in sphere formation
Protocol: (§1) FIGS. 25A-25D: p38 inhibition compromises stem cell properties in vitro. (A) HMLER-Snail cells were treated with various p38 inhibitors. Cells were seeded in ultra-low attachment plates and cultured for 7-10 days. Spheres with a diameter greater than […] were counted. The data are reported as the number of spheres formed/1000 seeded cells±SEM. Concentration of the drug that induced 50% reduction in sphere formation: SB203580—20 uM; PH797804—10 nM; LY2228820—10 nM; VX-702—50 uM. (B) SUM159 cells were treated with various p38 inhibitors. Cells were seeded in ultra-low attachment plates and cultured for 7-10 days. Spheres with a diameter greater than 75 μm were counted. The data are reported as the number of spheres formed/1000 seeded cells±SEM. Concentration of the drug that induced 50% reduction in sphere formation: SB203580—20 uM; PH797804—100 nM; LY2228820—300 nM nM; VX-702-50 uM. (C) HMLE-Snail cells were treated with various p38 inhibitors. Cells were seeded in ultra-low attachment plates and cultured for 7-10 days. Spheres with a diameter greater than 75 μm were counted. The data are reported as the number of spheres formed/1000 seeded cells±SEM. […]
(§2) Quantification of invadopodia (Eckert et al., 2011), scratch/wound-healing assays (Sarkar et al., 2015) fluorescence-activated cell sorting (FACS), and sphere-formation assays (Mani et al., 2008) were conducted as described previously.

HMLER-Snail cells = test: Sphere formation in ultra-low attachment plates, HMLER-Snail cells; assay type: cell-based; settings: Homo sapiens, read-out: Concentration of the drug that induced 50% reduction in sphere formation
Protocol: as §1, §2

Akt1 = molecular target: T1, Akt1 (Homo sapiens, UniProt P31749); test: Phosphorylation of Akt1 in PCa cells; assay type: cell-based; settings: SB203580 concentration used to treat PCa cells (5 μM)
T1 construct: endogenous in cells; host or cells: PCa cells (LNCaP, DU145, PC3; which line is not specified)
Protocol: For assessing the effect of inhibition of p38MAPK signaling, cells were treated for 7 days with 5 μM SB203580 45 (EMD-Millipore) dissolved in water. For assessing the combined effect of p38MAPK inhibition and the AR antagonist Enzalutamide (Scher et al., 2012) (SelleckChem) or the chemotherapeutic Docetaxel (LC Laboratories), cells were co-treated with SB203580 and either Enzalutamide/Docetaxel for 7 days.

4T1 cells = test: Sphere formation of 4T1 cells; assay type: cell-based, mouse
Protocol: FIGS. 17A-17E: p38-mediated phosphorylation of FOXC2 at S367 regulates metastasis. (A) 4T1 cells, transduced with either empty vector (pMIG) or FOXC2 (S367E), were treated with vehicle or SB203580. Cell lysates were analyzed by immunoblotting for FOXC2, with β-actin as a loading control. (B) 4T1 cells, transduced with empty vector or FOXC2 (S367E), were subjected to a sphere-formation assay in the presence of vehicle or SB203580. Data are presented as the mean number of spheres formed/1000 seeded cells±SEM. (C) 4T1-vector or 4T1-FOXC2 (S367E) luciferase-labeled cells were orthotopically injected into mice. Mice were treated daily with vehicle or SB203580, and primary tumor growth was monitored weekly by bioluminescence. Data are presented as the total photon flux plotted over time and reported as mean±SEM. (D) Representative bioluminescent images of lungs harvested from mice in (c) at 4 weeks post-implantation. (E) The bioluminescent signal from the lungs harvested from mice in (c) was quantified to determine the incidence of metastasis. Data are reported as mean±SEM. p-values were calculated using Student's unpaired two-tailed t-test.*p<0.05; ***p<0.001 compared to the control.
It was next tested whether p38-mediated phosphorylation of FOXC2 enhances its ability to confer metastatic competence.

FOXC2 protein = test: Western blots of FOXC2 protein in HMLER-Snail cells; assay type: cell-based; settings: Homo sapiens, 48 h, Day 2 of treatment, read-out: Concentration of the drug that induced 50% reduction in FOXC2 protein
Protocol: FIGS. 25A-25D: p38 inhibition compromises stem cell properties in vitro. (A) HMLER-Snail cells were treated with various p38 inhibitors. Cells were seeded in ultra-low attachment plates and cultured for 7-10 days. Spheres with a diameter greater than […] were counted. The data are reported as the number of spheres formed/1000 seeded cells±SEM. Concentration of the drug that induced 50% reduction in sphere formation: SB203580—20 uM; PH797804—10 nM; LY2228820—10 nM; VX-702—50 uM. (B) SUM159 cells were treated with various p38 inhibitors. Cells were seeded in ultra-low attachment plates and cultured for 7-10 days. Spheres with a diameter greater than 75 μm were counted. The data are reported as the number of spheres formed/1000 seeded cells±SEM. Concentration of the drug that induced 50% reduction in sphere formation: SB203580—20 uM; PH797804—100 nM; LY2228820—300 nM nM; VX-702-50 uM. (C) HMLE-Snail cells were treated with various p38 inhibitors. Cells were seeded in ultra-low attachment plates and cultured for 7-10 days. Spheres with a diameter greater than 75 μm were counted. The data are reported as the number of spheres formed/1000 seeded cells±SEM. […] (D) Western blots of HMLER-Snail cell treatment with various p38 inhibitors on Day 2 of treatment. Concentration of the drug that induced 50% reduction in FOXC2 protein: SB203580-10 uM; PH797804—50 nM; TAK-714-5 uM. […]

SUM159 cells = test: Sphere formation in ultra-low attachment plates, SUM159 cells; assay type: cell-based; settings: Homo sapiens, SUM159, read-out: Concentration of the drug that induced 50% reduction in sphere formation
Protocol: as §1, §2

## C[S+]([O-])c1ccc(-c2nc(-c3ccc(F)cc3)c(-c3ccncc3)[nH]2)cc1 (centres unmarked) [SB203580, 4-(4-Fluorophenyl)-2-(4-methylsulfinylphenyl)-5-(4-pyridyl) 1H-imidazole]
[1]
  Efficiency in leukemic cell cluster formation: did not differ significantly
HMLE-Snail cells
  IC50: 20 µM
HMLER-Snail cells
  IC50: 20 µM
Akt1
  Phosphorylation of Akt1 (selectivity): No appreciable changes in the phosphorylation of Akt1
4T1 cells; 4T1-FOXC2(S367E) cells
  Sphere-forming efficiency: refractory to p38 inhibition
4T1 cells; vector-transduced 4T1 cells
  Sphere-forming efficiency: compromised the sphere-forming efficiency
FOXC2 protein
  IC50: 10 µM
SUM159 cells
  IC50: 20 µM
